Some of the results follow.

The test addresses T1, OsSMF1 (Oryza sativa, UniProt Q6ZLB0 1-436).
T1 sequence: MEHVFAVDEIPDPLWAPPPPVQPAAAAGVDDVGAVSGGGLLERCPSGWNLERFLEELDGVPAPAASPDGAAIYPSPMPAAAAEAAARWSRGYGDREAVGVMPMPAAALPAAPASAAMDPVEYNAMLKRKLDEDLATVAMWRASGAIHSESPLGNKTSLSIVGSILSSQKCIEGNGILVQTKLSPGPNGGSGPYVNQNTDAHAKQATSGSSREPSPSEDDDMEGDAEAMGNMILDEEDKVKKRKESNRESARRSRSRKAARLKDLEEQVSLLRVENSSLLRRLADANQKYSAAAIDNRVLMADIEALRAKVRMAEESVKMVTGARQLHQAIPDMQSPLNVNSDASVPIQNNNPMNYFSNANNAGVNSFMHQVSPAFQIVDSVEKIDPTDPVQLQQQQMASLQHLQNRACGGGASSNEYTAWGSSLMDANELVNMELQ
The test can be described thus: protein-binding microarray (RPBM); PBS, 2% BSA, 51.3 ng/ul salmon testes DNA, 50 uM zinc acetate, 200 nM TF, 25 C, 1 h; high values mean tight binding. Conditions: protein: recombinant; tags: N-terminal polyhistidine and DsRed monomer fusion (pET32a); chain copies: 2; label: CyDye5-dUTP incorporated in the synthesized complementary strand; 3' TTTTT single-stranded linker to array surface; dsDNA, one strand shown. The essentials: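 Binding signal here means per-feature fluorescence intensity in arbitrary units. The values were read on an Axon 4000B scanner after a custom Agilent array, double-stranded by primer extension with Cy5-dUTP, was incubated with 200 nM protein at 25 °C for 1 h in PBS with 2% BSA, salmon testes DNA and 50 µM zinc acetate, then washed. The proteins were transcription factors with an N-terminal polyhistidine tag and DsRed, expressed in E. coli BL21-CodonPlus and purified on Ni–NTA.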
Consider “CACTGGGCGCGTGCAGCGGCGATTCGACCATCTGTTCCACCGGAGTCACCTAGTGCAG”, for which the binding signal was 3200 fluorescence intensity (a.u.).

Take “AGAAAGCGAAAGCAATCCACGTCACCGGCGGCGAGCCGTCCGGAGTCACCTAGTGCAG”: the binding signal was 7760 fluorescence intensity (a.u.). As for “CTCGAAGACGATATGGCGTGTGATTTTCCACAGTTTATTCCGGAGTCACCTAGTGCAG”, the binding signal is 3250 fluorescence intensity (a.u.).

As for “CCAACCTTTCATTATGCTCGACCAACGTGGCGAACACGTGCGGAGTCACCTAGTGCAG”, the binding signal is 3970 fluorescence intensity (a.u.). For “TCCCGCATGTGTTGTGTGATGTGTCTCGTCTCCGCCACCACGGAGTCACCTAGTGCAG”, the binding signal is 7960 fluorescence intensity (a.u.). As to “GTTACCTGCTAGTGACCATTGGTGACTAACTCGCCAAACACGGAGTCACCTAGTGCAG”, the binding signal was 4220 fluorescence intensity (a.u.). The same measure for “GCAATAGCCAAGAACTGAGCCAAAGAACAGCCAAGCCCATCGGAGTCACCTAGTGCAG”: 3600 fluorescence intensity (a.u.); for “CATCATGTCACGTGTCAATGTGTCAAGCGTCCGTCTGCTACGGAGTCACCTAGTGCAG”: 10900 fluorescence intensity (a.u.). With “TGGCGGAGCGAACAGCCAACTCGCCGAGTCTCTCTCCGCGCGGAGTCACCTAGTGCAG”, the binding signal was 3170 fluorescence intensity (a.u.). For the sequence “GTTGGCACGTACGGCGGGCGGCTGACCGGACGAACGCCACCGGAGTCACCTAGTGCAG”, the binding signal is 3190 fluorescence intensity (a.u.). For the sequence “CGGGTGGGGATGGGCTGGATCTGGATTGATTGGGAGTGTTCGGAGTCACCTAGTGCAG”, the binding signal was 3910 fluorescence intensity (a.u.). Regarding “ATAGGATCGTGTAGAACATGGTATCTGATTCCTGCAATTTCGGAGTCACCTAGTGCAG”, the binding signal was 3420 fluorescence intensity (a.u.).

For the sequence “GACCTGATCACCTGAGCCAGTCCACGTACGTACGCCCGACCGGAGTCACCTAGTGCAG”, the binding signal was 9460 fluorescence intensity (a.u.). As to “CGCTTGTTCGCTGGATTTGCGACCAGCTGCCCACGTCCTGCGGAGTCACCTAGTGCAG”, the binding signal was 4210 fluorescence intensity (a.u.). For the sequence “GTGTCTTCGACCACCACGGCGCTACGTCATGACGCCACCACGGAGTCACCTAGTGCAG”, the binding signal was 5950 fluorescence intensity (a.u.). As for “TTTAATATTTTGCTTTTAGTGATCACTGCCACATAGGACGCGGAGTCACCTAGTGCAG”, the figure is 7890 fluorescence intensity (a.u.).

With “GAGGGGAAATGGAGAAATGACTCCCCTGCCCCTTCTTCTCCGGAGTCACCTAGTGCAG”, the binding signal was 3230 fluorescence intensity (a.u.).

On to “TAGCCTAGAGTCATTCGGTCTACAGTTCTCTAATCATCGGCGGAGTCACCTAGTGCAG”, for which the binding signal was 3420 fluorescence intensity (a.u.). “CAGCGTCAGCGTCGCACCAACAACTCTACTAACACCACCACGGAGTCACCTAGTGCAG”: the binding signal is 4180 fluorescence intensity (a.u.). “CTGACCAAACAGAAAACAGTTACAAGAACACATCTTTGAGCGGAGTCACCTAGTGCAG”: the binding signal is 3160 fluorescence intensity (a.u.). On to “GCTAGAAAATAGTGGGGATGGTGTATGCATTGAGTTTGTTCGGAGTCACCTAGTGCAG”, for which the binding signal is 3660 fluorescence intensity (a.u.). As for “TGCCATTCTGACCCACATGTCATTGACTCATGTGGATCTTCGGAGTCACCTAGTGCAG”, the figure is 7260 fluorescence intensity (a.u.); as for “TAAACACAATTCTCCCTAATTATTATTTCTGGATGATGAGCGGAGTCACCTAGTGCAG”, 41400 fluorescence intensity (a.u.).

With “TGGATGACTTCATCGTGCCCGACGCCGACGTCCCGACCAACGGAGTCACCTAGTGCAG”, the binding signal was 3800 fluorescence intensity (a.u.). On to “GGTCCAAGAGCCCAACTGAACCGGAGGAGTCGAGCCGCCGCGGAGTCACCTAGTGCAG”, for which the binding signal was 23100 fluorescence intensity (a.u.). Consider “GTGCACGCTTATGTGCGCGCCTGCCCTAATGTTTCTAGGACGGAGTCACCTAGTGCAG”, for which the binding signal was 3270 fluorescence intensity (a.u.). The same measure for “TGAAATTTACTCGTTAATCATGCAAAGTCCCACGTACTGTCGGAGTCACCTAGTGCAG”: 5590 fluorescence intensity (a.u.); for “ATCAGGAACATTATGAAATTTTAACACGTTGTCATTGTCTCGGAGTCACCTAGTGCAG”: 3760 fluorescence intensity (a.u.); for “AGTCAATTAATCATATGCTAATGACTCACCTCGTTTTGTGCGGAGTCACCTAGTGCAG”: 15200 fluorescence intensity (a.u.).

For “CGGAGACGGGAGGCGAGGCGAGCGGCGCCGCGGAACGGGACGGAGTCACCTAGTGCAG”, the binding signal was 18600 fluorescence intensity (a.u.). Consider “GTGGGCCCCACCCACACGTCAGCACCACCATCCGCTCACCCGGAGTCACCTAGTGCAG”, for which the binding signal was 14400 fluorescence intensity (a.u.). Turning to “AAAGCGAGAGACAGCTCATCGCCCATTCGCCCTCGCGCCGCGGAGTCACCTAGTGCAG”, the binding signal is 4130 fluorescence intensity (a.u.). Take “CATTTATAACTTTGCTGTGTTTCACTGATGCAGGTTTTATCGGAGTCACCTAGTGCAG”: the binding signal is 3490 fluorescence intensity (a.u.). For the sequence “TATATTCAATGCTATGTTTAATGAAACTAATTTGGATATTCGGAGTCACCTAGTGCAG”, the binding signal was 65100 fluorescence intensity (a.u.). Take “AAATTAACCATGTATGCTAATATGTTATCGCCCTCCAGATCGGAGTCACCTAGTGCAG”: the binding signal is 3390 fluorescence intensity (a.u.).

Regarding “GTCGGAGAAAGCGCGACGACGTGGTTGAATTGCTCCGGTGCGGAGTCACCTAGTGCAG”, the binding signal was 4040 fluorescence intensity (a.u.). As for “ATACTACTACTACCGTTTAACAGTTTATTACTAACAAAATCGGAGTCACCTAGTGCAG”, the binding signal was 4760 fluorescence intensity (a.u.). On to “GCGCGCCGGGGAGCACAGTCGTCGTCACGACCAGGAGCAGCGGAGTCACCTAGTGCAG”, for which the binding signal is 4150 fluorescence intensity (a.u.).

“TGTTTCATCTAGTATAAGGACGTGGCATCGTATTAATTTCCGGAGTCACCTAGTGCAG”: the binding signal was 8200 fluorescence intensity (a.u.). “TATCAGCATTCAGCAGATGCTCGTGTGGAAAATTCAGGGTCGGAGTCACCTAGTGCAG”: the binding signal was 3310 fluorescence intensity (a.u.).

With “AACCCAGATATCCAATCCGGCCCTTCTCATCAGTTGTCAGCGGAGTCACCTAGTGCAG”, the binding signal is 3380 fluorescence intensity (a.u.). Consider “GCCTCGCCTTCTCGCTCGTTCCCATGGGCGGATCTGCTGACGGAGTCACCTAGTGCAG”, for which the binding signal is 4280 fluorescence intensity (a.u.).

The values are drawn from PMC7819943, “Rice protein-binding microarrays: a tool to detect cis-acting elements near promoter regions in rice”.
